The supplement of paper PMC10849652
Some of the results follow.

Amino acid sequences for entries named in this document (tags omitted). A change or cut given only in a name is not applied to a line headed by its entry.
UniProt Q9H2M9: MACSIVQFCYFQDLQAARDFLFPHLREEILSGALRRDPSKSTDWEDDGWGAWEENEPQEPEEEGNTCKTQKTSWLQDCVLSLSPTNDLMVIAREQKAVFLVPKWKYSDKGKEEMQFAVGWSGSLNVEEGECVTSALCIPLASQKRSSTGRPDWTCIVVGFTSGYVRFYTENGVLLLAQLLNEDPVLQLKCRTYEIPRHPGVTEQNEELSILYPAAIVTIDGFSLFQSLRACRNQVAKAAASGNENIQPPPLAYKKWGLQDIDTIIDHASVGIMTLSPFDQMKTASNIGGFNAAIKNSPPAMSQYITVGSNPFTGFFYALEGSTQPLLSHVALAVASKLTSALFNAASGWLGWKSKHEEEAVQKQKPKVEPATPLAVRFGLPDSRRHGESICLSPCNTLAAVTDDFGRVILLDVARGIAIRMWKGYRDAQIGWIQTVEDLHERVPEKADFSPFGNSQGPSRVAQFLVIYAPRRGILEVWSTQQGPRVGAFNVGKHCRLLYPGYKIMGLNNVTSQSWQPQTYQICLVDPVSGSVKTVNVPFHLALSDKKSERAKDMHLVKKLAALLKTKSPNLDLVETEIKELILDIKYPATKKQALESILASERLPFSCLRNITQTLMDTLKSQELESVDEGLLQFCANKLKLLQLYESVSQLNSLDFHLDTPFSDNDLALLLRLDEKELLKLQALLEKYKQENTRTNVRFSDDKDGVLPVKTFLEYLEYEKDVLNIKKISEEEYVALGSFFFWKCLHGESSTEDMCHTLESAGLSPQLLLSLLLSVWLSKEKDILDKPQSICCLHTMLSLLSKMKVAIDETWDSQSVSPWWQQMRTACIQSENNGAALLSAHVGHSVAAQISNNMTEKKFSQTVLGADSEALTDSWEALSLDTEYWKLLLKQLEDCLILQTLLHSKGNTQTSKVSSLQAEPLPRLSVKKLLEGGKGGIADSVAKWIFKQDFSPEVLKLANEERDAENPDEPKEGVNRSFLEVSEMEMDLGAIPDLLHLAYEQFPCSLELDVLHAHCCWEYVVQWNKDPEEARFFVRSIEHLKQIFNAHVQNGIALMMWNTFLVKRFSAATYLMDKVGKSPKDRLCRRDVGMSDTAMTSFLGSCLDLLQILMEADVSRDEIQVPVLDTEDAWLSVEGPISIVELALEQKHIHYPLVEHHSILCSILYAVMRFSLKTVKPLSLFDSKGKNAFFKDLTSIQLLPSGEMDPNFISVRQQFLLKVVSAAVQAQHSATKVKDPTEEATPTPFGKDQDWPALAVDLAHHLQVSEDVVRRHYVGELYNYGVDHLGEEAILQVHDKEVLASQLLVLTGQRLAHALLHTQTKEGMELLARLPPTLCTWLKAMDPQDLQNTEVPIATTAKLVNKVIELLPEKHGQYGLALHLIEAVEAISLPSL
UniProt P78406: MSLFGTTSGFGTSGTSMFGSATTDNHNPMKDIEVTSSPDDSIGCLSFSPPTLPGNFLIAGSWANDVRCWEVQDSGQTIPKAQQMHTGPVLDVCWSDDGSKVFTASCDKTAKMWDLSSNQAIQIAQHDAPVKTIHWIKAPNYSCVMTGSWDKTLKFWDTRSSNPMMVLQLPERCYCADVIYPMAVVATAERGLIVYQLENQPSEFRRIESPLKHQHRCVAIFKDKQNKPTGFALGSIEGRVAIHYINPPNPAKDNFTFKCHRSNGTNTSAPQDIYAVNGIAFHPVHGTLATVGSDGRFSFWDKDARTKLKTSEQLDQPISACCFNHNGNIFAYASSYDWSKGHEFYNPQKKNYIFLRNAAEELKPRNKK
UniProt Q9Y3L5: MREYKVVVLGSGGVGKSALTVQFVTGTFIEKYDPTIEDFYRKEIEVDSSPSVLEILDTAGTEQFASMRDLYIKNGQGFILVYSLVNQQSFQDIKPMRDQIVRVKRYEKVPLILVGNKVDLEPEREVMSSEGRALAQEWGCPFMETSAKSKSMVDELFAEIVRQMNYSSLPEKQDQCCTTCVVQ
UniProt Q9Y3T6: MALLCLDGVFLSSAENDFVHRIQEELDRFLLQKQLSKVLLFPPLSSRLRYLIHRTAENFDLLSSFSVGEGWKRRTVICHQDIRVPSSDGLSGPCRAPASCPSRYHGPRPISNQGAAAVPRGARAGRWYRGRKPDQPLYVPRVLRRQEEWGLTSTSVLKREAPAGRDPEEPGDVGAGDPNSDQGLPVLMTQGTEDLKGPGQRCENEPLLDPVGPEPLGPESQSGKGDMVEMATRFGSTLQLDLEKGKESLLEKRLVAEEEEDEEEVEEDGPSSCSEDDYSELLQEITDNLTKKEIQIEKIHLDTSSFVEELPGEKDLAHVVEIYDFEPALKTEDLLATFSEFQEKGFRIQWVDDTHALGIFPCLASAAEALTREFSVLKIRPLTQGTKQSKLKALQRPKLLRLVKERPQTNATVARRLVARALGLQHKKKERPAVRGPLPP
UniProt Q9Y6I8: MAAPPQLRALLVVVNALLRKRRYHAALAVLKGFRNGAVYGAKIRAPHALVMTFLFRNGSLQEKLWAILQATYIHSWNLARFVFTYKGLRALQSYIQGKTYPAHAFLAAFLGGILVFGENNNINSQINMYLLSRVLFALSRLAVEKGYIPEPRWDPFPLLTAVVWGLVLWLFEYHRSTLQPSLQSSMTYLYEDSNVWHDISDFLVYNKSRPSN
UniProt Q92696: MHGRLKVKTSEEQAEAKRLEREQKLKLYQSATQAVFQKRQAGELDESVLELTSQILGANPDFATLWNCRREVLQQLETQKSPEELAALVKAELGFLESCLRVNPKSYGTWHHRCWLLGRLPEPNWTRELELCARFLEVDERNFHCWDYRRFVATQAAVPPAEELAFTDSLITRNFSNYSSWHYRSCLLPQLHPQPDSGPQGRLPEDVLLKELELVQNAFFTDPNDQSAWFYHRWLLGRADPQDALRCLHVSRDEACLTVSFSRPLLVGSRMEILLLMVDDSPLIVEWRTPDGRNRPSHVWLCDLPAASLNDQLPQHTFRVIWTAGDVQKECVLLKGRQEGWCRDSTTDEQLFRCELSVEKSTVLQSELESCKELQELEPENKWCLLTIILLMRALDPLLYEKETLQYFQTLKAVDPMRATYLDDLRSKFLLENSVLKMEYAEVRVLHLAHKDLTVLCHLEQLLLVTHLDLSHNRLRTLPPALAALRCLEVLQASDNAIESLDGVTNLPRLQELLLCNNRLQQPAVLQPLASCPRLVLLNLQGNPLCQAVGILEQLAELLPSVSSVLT
UniProt P47224: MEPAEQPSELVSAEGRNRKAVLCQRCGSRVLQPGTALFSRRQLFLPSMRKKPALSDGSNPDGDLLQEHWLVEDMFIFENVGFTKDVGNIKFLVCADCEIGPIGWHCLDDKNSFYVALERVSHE
UniProt Q13905: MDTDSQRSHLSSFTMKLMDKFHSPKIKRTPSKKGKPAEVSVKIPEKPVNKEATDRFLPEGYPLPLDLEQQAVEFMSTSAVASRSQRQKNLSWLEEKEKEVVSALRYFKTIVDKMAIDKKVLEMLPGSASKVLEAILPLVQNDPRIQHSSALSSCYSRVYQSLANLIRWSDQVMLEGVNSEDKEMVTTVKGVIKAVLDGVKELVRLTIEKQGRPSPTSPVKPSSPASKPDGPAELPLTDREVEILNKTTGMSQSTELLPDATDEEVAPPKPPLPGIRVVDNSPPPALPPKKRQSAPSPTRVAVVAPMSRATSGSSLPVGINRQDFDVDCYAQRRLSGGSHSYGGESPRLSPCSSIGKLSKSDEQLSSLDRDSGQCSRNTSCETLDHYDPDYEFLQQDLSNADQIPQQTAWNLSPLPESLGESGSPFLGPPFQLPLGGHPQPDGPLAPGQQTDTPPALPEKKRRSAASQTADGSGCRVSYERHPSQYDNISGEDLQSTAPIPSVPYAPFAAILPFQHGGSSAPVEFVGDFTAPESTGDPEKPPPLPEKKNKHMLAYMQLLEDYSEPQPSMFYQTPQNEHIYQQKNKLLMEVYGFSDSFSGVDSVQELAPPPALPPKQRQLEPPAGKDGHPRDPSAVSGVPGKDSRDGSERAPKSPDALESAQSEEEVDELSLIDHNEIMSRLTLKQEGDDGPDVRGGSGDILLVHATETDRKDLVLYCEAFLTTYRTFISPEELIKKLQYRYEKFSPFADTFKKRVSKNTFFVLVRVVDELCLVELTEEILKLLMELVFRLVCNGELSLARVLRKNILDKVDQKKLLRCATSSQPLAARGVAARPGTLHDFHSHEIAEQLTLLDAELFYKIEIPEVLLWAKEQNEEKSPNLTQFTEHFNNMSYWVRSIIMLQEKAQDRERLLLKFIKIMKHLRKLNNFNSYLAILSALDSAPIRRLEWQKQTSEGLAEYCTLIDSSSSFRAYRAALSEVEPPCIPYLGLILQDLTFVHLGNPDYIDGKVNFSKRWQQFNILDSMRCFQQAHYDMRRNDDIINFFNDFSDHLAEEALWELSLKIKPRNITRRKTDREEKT
UniProt Q8WZA2: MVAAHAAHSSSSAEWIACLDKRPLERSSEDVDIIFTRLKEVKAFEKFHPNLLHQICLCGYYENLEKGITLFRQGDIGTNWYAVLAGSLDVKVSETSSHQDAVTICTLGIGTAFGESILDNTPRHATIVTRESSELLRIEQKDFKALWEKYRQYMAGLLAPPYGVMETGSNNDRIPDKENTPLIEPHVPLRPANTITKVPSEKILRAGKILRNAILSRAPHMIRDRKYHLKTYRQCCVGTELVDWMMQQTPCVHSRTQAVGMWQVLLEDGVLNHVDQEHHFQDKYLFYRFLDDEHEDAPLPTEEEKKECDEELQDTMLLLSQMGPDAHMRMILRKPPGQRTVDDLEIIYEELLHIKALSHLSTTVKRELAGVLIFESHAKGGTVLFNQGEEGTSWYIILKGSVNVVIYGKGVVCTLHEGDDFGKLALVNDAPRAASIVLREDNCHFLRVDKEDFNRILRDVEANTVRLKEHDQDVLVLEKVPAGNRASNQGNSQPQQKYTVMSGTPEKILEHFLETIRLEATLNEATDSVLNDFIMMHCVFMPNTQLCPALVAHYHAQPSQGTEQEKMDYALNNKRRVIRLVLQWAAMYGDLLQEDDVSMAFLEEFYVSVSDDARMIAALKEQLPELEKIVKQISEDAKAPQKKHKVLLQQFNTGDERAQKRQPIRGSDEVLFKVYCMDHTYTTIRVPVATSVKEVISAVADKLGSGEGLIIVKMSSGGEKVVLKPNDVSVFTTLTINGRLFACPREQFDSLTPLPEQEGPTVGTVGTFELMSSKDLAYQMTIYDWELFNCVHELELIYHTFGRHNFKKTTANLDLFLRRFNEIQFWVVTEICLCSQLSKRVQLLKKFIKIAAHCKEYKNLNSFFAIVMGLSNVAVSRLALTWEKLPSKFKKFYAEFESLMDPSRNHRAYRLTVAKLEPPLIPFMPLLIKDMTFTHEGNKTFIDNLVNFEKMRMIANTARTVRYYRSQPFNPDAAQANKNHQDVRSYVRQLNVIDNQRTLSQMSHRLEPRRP
UniProt P20340: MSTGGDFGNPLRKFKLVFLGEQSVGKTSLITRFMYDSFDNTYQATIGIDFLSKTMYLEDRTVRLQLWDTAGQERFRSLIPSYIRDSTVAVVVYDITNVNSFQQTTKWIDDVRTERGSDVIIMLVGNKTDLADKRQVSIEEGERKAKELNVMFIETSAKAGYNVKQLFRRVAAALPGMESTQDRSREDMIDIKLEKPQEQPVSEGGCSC
UniProt Q13636: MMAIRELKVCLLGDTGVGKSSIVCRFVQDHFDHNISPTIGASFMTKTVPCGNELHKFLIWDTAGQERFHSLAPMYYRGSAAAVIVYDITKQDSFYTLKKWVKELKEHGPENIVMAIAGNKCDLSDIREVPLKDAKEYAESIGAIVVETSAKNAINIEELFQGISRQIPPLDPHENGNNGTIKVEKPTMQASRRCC

Tests used:
Assay in all cases: log2 fold change, soluble protein after heating vs DMSO (PISA); higher = thermal stabilisation; K562 lysate, 10 uM; active = over 0.2 and 3.5 SD of the protein, either way, in both replicates (recomputed)
vemurafenib = compound: CCCS(=O)(=O)Nc1ccc(F)c(C(=O)c2c[nH]c3ncc(-c4ccc(Cl)cc4)cc23)c1F [vemurafenib]
In short: (§1)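 To prepare the extract, K562 pellets were dounce-homogenised in PBS pH 7.4 with 1 mM MgCl2, giving crude material at 1 mg/mL protein. This was treated with 10 μM compound for 30 min, then heated in aliquots for 3 min over 48°C-58°C before pooling and addition of NP-40 to 0.5% at 4°C. Centrifugation at 21,000xg for 90 min left soluble protein in the supernatant, which TMTpro 16plex LC-MS/MS quantified with equalised channel sums. Results are log-two fold changes in thermal stability compared with solvent controls, from duplicates.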

[1] = compound: CCCS(=O)(=O)Nc1ccc(F)c(C(=O)c2c[nH]c3ncc(Cl)cc23)c1F
In short: as §1

barasertib = compound: CCN(CCCOc1ccc2c(Nc3cc(CC(=O)Nc4cccc(F)c4)[nH]n3)ncnc2c1)CCOP(=O)(O)O [barasertib]
In short: as §1

[2] = compound: CC[C@@H]1C(=O)N(C)c2cnc(Nc3ccc(C(=O)NC4CCN(C)CC4)cc3OC)nc2N1C1CCCC1
In short: as §1

volasertib = compound: CC[C@@H]1C(=O)N(C)c2cnc(Nc3ccc(C(=O)N[C@H]4CC[C@H](N5CCN(CC6CC6)CC5)CC4)cc3OC)nc2N1C(C)C [volasertib]
In short: as §1

[3] = compound: CCn1c(C(=O)N(C2CC2)C2CC2)cc2c3c(ncn3C)c(Nc3cc(C)n(C)n3)nc21
In short: as §1

[4] = compound: CCn1cc(-c2ccnc3[nH]c(-c4cccc(CN(C)C)c4)cc23)c(-c2ccc(NC(=O)N(C)C)cc2)n1
In short: as §1

[5] = compound: CN1CCC(CNc2ccc3ncc(-c4cccc(OC(F)(F)F)c4)n3n2)CC1
In short: as §1

saracatinib = compound: CN1CCN(CCOc2cc(OC3CCOCC3)c3c(Nc4c(Cl)ccc5c4OCO5)ncnc3c2)CC1 [saracatinib]
In short: as §1

sotrastaurin = compound: CN1CCN(c2nc(C3=C(c4c[nH]c5ccccc45)C(=O)NC3=O)c3ccccc3n2)CC1 [sotrastaurin]
In short: as §1

Target | log2 fold change (vemurafenib) | log2 fold change [1] | log2 fold change (barasertib) | log2 fold change [2] | log2 fold change (volasertib) | log2 fold change [3] | log2 fold change [4] | log2 fold change [5] | log2 fold change (saracatinib) | log2 fold change (sotrastaurin)
QRICH1 (UniProt Q2TAL8) | inactive: -0.022 | inactive: 0.047 | inactive: 0.038 | inactive: -0.035 | inactive: -0.082 | inactive: 0.004 | inactive: -0.05 | inactive: -0.03 | inactive: 0.049 | inactive: 0.027
RAB3GAP2 (UniProt Q9H2M9) | inactive: 0.006 | inactive: 0.019 | inactive: 0.03 | inactive: -0.047 | inactive: -0.051 | inactive: 0.033 | inactive: 0.026 | inactive: -0.084 | inactive: 0.012 | inactive: -0.003
RAE1 (UniProt P78406) | inactive: -0.017 | inactive: -0.021 | inactive: -0.051 | inactive: 0.04 | inactive: -0.081 | inactive: 0.018 | active: -0.355 | inactive: 0.131 | inactive: 0.039 | inactive: 0.044
RAD23B (UniProt P54727) | inactive: 0.002 | inactive: -0.02 | inactive: 0.057 | inactive: 0.024 | inactive: 0.024 | inactive: -0.034 | inactive: -0.007 | inactive: 0.03 | inactive: -0.007 | inactive: -0.006
RAP2C (UniProt Q9Y3L5) | inactive: -0.215 | inactive: -0.002 | inactive: 0.088 | inactive: 0.049 | inactive: -0.097 | inactive: -0.05 | inactive: -0.057 | inactive: 0.04 | inactive: 0 | inactive: 0.022
R3HCC1 (UniProt Q9Y3T6) | inactive: 0.07 | inactive: 0.036 | inactive: 0.009 | inactive: 0.044 | inactive: -0.015 | inactive: -0.022 | inactive: -0.066 | inactive: 0.082 | inactive: 0.029 | inactive: 0.021
RABGAP1L isoform 5 (UniProt Q5R372) | inactive: 0.017 | inactive: -0.027 | inactive: 0.036 | inactive: 0.058 | inactive: 0.015 | inactive: -0.074 | inactive: 0.066 | inactive: -0.073 | inactive: 0.014 | inactive: 0.078
PXMP4 (UniProt Q9Y6I8) | inactive: 0.343 | inactive: 0.114 | inactive: 0.04 | inactive: -0.035 | inactive: -0.039 | inactive: 0.064 | inactive: -0.246 | inactive: 0.006 | inactive: 0.036 | inactive: 0.025
RABGGTA (UniProt Q92696) | inactive: -0.008 | inactive: 0.007 | inactive: 0.039 | inactive: 0.002 | inactive: -0.037 | inactive: 0.003 | inactive: -0.087 | inactive: 0.08 | inactive: -0.008 | inactive: -0.027
RAC1 isoform 2 (UniProt P63000) | inactive: -0.03 | inactive: 0.013 | inactive: -0.011 | inactive: -0.056 | inactive: -0.007 | inactive: 0.129 | inactive: 0.225 | inactive: -0.036 | inactive: 0.019 | inactive: 0.011
RAB28 (UniProt P51157) | inactive: 0.239 | inactive: -0.297 | inactive: 0.196 | inactive: -0.056 | inactive: -0.135 | inactive: 0.11 | inactive: -0.119 | inactive: 0.038 | inactive: 0.106 | inactive: 0.05
RAB3GAP1 (UniProt Q15042) | inactive: 0.028 | inactive: 0.027 | inactive: 0.008 | inactive: -0.056 | inactive: -0.063 | inactive: 0.007 | inactive: -0.034 | inactive: -0.088 | inactive: -0.001 | inactive: -0.007
RABIF (UniProt P47224) | inactive: 0.02 | inactive: -0.013 | inactive: 0.043 | inactive: 0.031 | inactive: 0.004 | inactive: 0.047 | inactive: -0.072 | inactive: -0.062 | inactive: -0.022 | inactive: -0.008
RAD1 (UniProt O60671) | inactive: 0.031 | inactive: 0.022 | inactive: -0.064 | inactive: -0.035 | inactive: 0.016 | inactive: 0.038 | inactive: -0.017 | inactive: 0.059 | inactive: 0.025 | inactive: -0.006
RAB35 (UniProt Q15286) | inactive: -0.063 | inactive: -0.01 | inactive: 0.005 | inactive: 0.034 | inactive: -0.034 | inactive: 0.028 | inactive: -0.011 | inactive: 0.064 | inactive: -0.027 | inactive: -0.004
RAPGEF1 isoform 3 (UniProt Q13905) | inactive: -0.02 | inactive: 0.055 | inactive: -0.07 | inactive: -0.041 | inactive: -0.029 | inactive: -0.044 | inactive: 0.074 | inactive: -0.069 | inactive: -0.028 | inactive: 0.06
RAPGEF4 (UniProt Q8WZA2) | inactive: 0.157 | inactive: 0.077 | inactive: 0.022 | inactive: 0.174 | inactive: 0.049 | inactive: -0.259 | active: -0.887 | inactive: 0.391 | inactive: 0.037 | inactive: 0.001
RACK1 (UniProt P63244) | inactive: -0.041 | inactive: 0 | inactive: -0.012 | inactive: -0.052 | inactive: -0.064 | inactive: -0.002 | inactive: 0.042 | inactive: -0.025 | inactive: -0.014 | inactive: -0.025
RANGAP1 (UniProt P46060) | inactive: -0.019 | inactive: 0.015 | inactive: 0.005 | inactive: -0.039 | inactive: -0.021 | inactive: 0.002 | inactive: -0.008 | inactive: -0.033 | inactive: 0.013 | inactive: -0.008
RAB6A isoform 4 (UniProt P20340) | inactive: 0.05 | inactive: -0.04 | inactive: 0.056 | inactive: 0.122 | inactive: 0.037 | inactive: -0.023 | inactive: -0.067 | inactive: 0.028 | inactive: 0.027 | inactive: -0.004
RAD21 (UniProt O60216) | inactive: -0.032 | inactive: 0.022 | inactive: 0.019 | inactive: 0.01 | inactive: -0.014 | inactive: 0.022 | inactive: -0.015 | inactive: 0.015 | inactive: 0.001 | inactive: -0.007
RAB31 (UniProt Q13636) | inactive: 0.02 | inactive: -0.027 | inactive: -0.018 | inactive: -0.01 | inactive: -0.011 | inactive: -0.019 | inactive: 0.01 | inactive: 0.089 | inactive: 0.039 | inactive: -0.025
RABEP1 (UniProt Q15276) | inactive: -0.002 | inactive: 0.006 | inactive: -0.025 | inactive: 0.029 | inactive: 0.017 | inactive: -0.017 | inactive: -0.032 | inactive: 0.053 | inactive: 0.001 | inactive: 0.007
R3HCC1L, A0A384DVK4 | inactive: 0.191 | inactive: -0.017 | inactive: 0.048 | inactive: -0.087 | inactive: -0.008 | inactive: -0.003 | inactive: 0.261 | inactive: 0.019 | inactive: 0.024 | inactive: 0
RALGAPB (UniProt Q86X10) | inactive: 0.044 | inactive: 0.016 | inactive: 0.103 | inactive: -0.008 | inactive: -0.023 | inactive: -0.013 | inactive: -0.09 | inactive: 0.07 | inactive: 0.017 | inactive: 0.032
QPCTL (UniProt Q9NXS2) | inactive: 0 | inactive: -0.075 | inactive: -0.016 | inactive: 0.055 | inactive: -0.023 | inactive: -0.018 | inactive: -0.018 | inactive: -0.032 | inactive: -0.002 | inactive: -0.033
PYCR1 isoform 3 (UniProt P32322) | inactive: 0.015 | inactive: 0.026 | inactive: -0.003 | inactive: 0.019 | inactive: 0.026 | inactive: 0.012 | inactive: 0.052 | inactive: -0.028 | inactive: -0.022 | inactive: -0.009

A different layout for some results above.

| Target | log2 fold change (vemurafenib) | log2 fold change [1] | log2 fold change (barasertib) | log2 fold change [2] | log2 fold change (volasertib) | log2 fold change [3] | log2 fold change [4] | log2 fold change [5] | log2 fold change (saracatinib) | log2 fold change (sotrastaurin) |
| --- | --- | --- | --- | --- | --- | --- | --- | --- | --- | --- |
| RAD1 (UniProt O60671) | inactive: 0.031 | inactive: 0.022 | inactive: -0.064 | inactive: -0.035 | inactive: 0.016 | inactive: 0.038 | inactive: -0.017 | inactive: 0.059 | inactive: 0.025 | inactive: -0.006 |
| RAB35 (UniProt Q15286) | inactive: -0.063 | inactive: -0.01 | inactive: 0.005 | inactive: 0.034 | inactive: -0.034 | inactive: 0.028 | inactive: -0.011 | inactive: 0.064 | inactive: -0.027 | inactive: -0.004 |
